Laboratory results reported in patent publication US20160113911A1, “METHODS AND COMPOSITIONS FOR THE TREATMENT OF CANCER” (THE GENERAL HOSPITAL CORPORATION, priority 2013, published 2016).
Residue numbers refer to the chain shown, from its start. Names and notes keep the numbering of the source.

B1: 2A-R1025C*: KDM4A mutation (protein, UniProt O75164 2-1064, looked up, variant R1025C)
Lysine-specific demethylase 4A: ASESETLNPSARIMTFYPTMEEFRNFSRYIAYIESQGAHRAGLAKVVPPKEWKPRASYDDIDDLVIPAPIQQLVTGQSGLFTQYNIQKKAMTVREFRKIANSDKYCTPRYSEFEELERKYWKNLTFNPPIYGADVNGTLYEKHVDEWNIGRLRTILDLVEKESGITIEGVNTPYLYFGMWKTSFAWHTEDMDLYSINYLHFGEPKSWYSVPPEHGKRLERLAKGFFPGSAQSCEAFLRHKMTLISPLMLKKYGIPFDKVTQEAGEFMITFPYGYHAGFNHGFNCAESTNFATRRWIEYGKQAVLCSCRKDMVKISMDVFVRKFQPERYKLWKAGKDNTVIDHTLPTPEAAEFLKESELPPRAGNEEECPEEDMEGVEDGEEGDLKTSLAKHRIGTKRHRVCLEIPQEVSQSELFPKEDLSSEQYEMTECPAALAPVRPTHSSVRQVEDGLTFPDYSDSTEVKFEELKNVKLEEEDEEEEQAAAALDLSVNPASVGGRLVFSGSKKKSSSSLGSGSSRDSISSDSETSEPLSCRAQGQTGVLTVHSYAKGDGRVTVGEPCTRKKGSAARSFSERELAEVADEYMFSLEENKKSKGRRQPLSKLPRHHPLVLQECVSDDETSEQLTPEEEAEETEAWAKPLSQLWQNRPPNFEAEKEFNETMAQQAPHCAVCMIFQTYHQVEFGGFNQNCGNASDLAPQKQRTKPLIPEMCFTSTGCSTDINLSTPYLEEDGTSILVSCKKCSVRVHASCYGVPPAKASEDWMCSRCSANALEEDCCLCSLRGGALQRANDDRWVHVSCAVAILEARFVNIAERSPVDVSKIPLPRFKLKCIFCKKRRKRTAGCCVQCSHGRCPTAFHVSCAQAAGVMMQPDDWPFVVFITCFRHKIPNLERAKGALQSITAGQKVISKHKNGRFYQCEVVRLTTETFYEVNFDDGSFSDNLYPEDIVSQDCLQFGPPAEGEVVQVRWTDGQVYGAKFVASHPIQMYQVEFEDGSQLVVKRDDVYTLDEELPKRVKSRLSVASDMCFNEIFTEKEVKQEKKRQRVINSRYREDYIEPALYRAIME
B2: 2A-D1023Y: KDM4A mutation (protein)
chain: MASESETLNPSARIMTFYPTMEEFRNFSRYIAYIESQGAHRAGLAKVVPPKEWKPRASYDDIDDLVIPAPIQQLVTGQSGLFTQYNIQKKAMTVREFRKIANSDKYCTPRYSEFEELERKYWKNLTFNPPIYGADVNGTLYEKHVDEWNIGRLRTILDLVEKESGITIEGVNTPYLYFGMWKTSFAWHTEDMDLYSINYLHFGEPKSWYSVPPEHGKRLERLAKGFFPGSAQSCEAFLRHKMTLISPLMLKKYGIPFDKVTQEAGEFMITFPYGYHAGFNHGFNCAESTNFATRRWIEYGKQAVLCSCRKDMVKISMDVFVRKFQPERYKLWKAGKDNTVIDHTLPTPEAAEFLKESELPPRAGNEEECPEEDMEGVEDGEEGDLKTSLAKHRIGTKRHRVCLEIPQEVSQSELFPKEDLSSEQYEMTECPAALAPVRPTHSSVRQVEDGLTFPDYSDSTEVKFEELKNVKLEEEDEEEEQAAAALDLSVNPASVGGRLVFSGSKKKSSSSLGSGSSRDSISSDSETSEPLSCRAQGQTGVLTVHSYAKGDGRVTVGEPCTRKKGSAARSFSERELAEVADEYMFSLEENKKSKGRRQPLSKLPRHHPLVLQECVSDDETSEQLTPEEEAEETEAWAKPLSQLWQNRPPNFEAEKEFNETMAQQAPHCAVCMIFQTYHQVEFGGFNQNCGNASDLAPQKQRTKPLIPEMCFTSTGCSTDINLSTPYLEEDGTSILVSCKKCSVRVHASCYGVPPAKASEDWMCSRCSANALEEDCCLCSLRGGALQRANDDRWVHVSCAVAILEARFVNIAERSPVDVSKIPLPRFKLKCIFCKKRRKRTAGCCVQCSHGRCPTAFHVSCAQAAGVMMQPDDWPFVVFITCFRHKIPNLERAKGALQSITAGQKVISKHKNGRFYQCEVVRLTTETFYEVNFDDGSFSDNLYPEDIVSQDCLQFGPPAEGEVVQVRWTDGQVYGAKFVASHPIQMYQVEFEDGSQLVVKRDDVYTLDEELPKRVKSRLSVASYMRFNEIFTEKEVKQEKKRQRVINSRYREDYIEPALYRAIME
B3: 2A-E23K: KDM4A mutation (protein)
chain: B2 chain with E23K, Y1023D
B4: 2A-S28N: KDM4A mutation (protein)
chain: B2 chain with S28N, Y1023D
B5: 2A-E1032K: KDM4A mutation (protein)
chain: B2 chain with Y1023D, E1032K
B6: Q88R: KDM4D mutation (protein)
chain: METMKSKANCAQNPNCNIMIFHPTKEEFNDFDKYIAYMESQGAHRAGLAKIIPPKEWKARETYDNISEILIATPLQQVASGRAGVFTRYHKKKKAMTVGEYRHLANSKKYQTPPHQNFEDLERKYWKNRIYNSPIYGADISGSLFDENTKQWNLGHLGTIQDLLEKECGVVIEGVNTPYLYFGMWKTTFAWHTEDMDLYSINYLHLGEPKTWYVVPPEHGQRLERLARELFPGSSRGCGAFLRHKVALISPTVLKENGIPFNRITQEAGEFMVTFPYGYHAGFNHGFNCAEAINFATPRWIDYGKMASQCSCGEARVTFSMDAFVRILQPERYDLWKRGQDRAVVDHMEPRVPASQELSTQKEVQLPRRAALGLRQLPSHWARHSPWPMAARSGTRCHTLVCSSLPRRSAVSGTATQPRAAAVHSSKKPSSTPSSTPGPSAQIIHPSNGRRGRGRPPQKLRAQELTLQTPAKRPLLAGTTCTASGPEPEPLPEDGALMDKPVPLSPGLQHPVKASGCSWAPVP
B7: R316W: KDM4D mutation (protein)
chain: B6 chain with R88Q, R316W
B8: P276L: KDM4D mutation (protein)
chain: B6 chain with R88Q, P276L
B9: R338C: KDM4D mutation (protein)
chain: B6 chain with R88Q, R338C
B10: R263H: KDM4D mutation (protein)
chain: B6 chain with R88Q, R263H
B11: A247D: KDM4D mutation (protein)
chain: B6 chain with R88Q, A247D
B12: R123P: KDM4D mutation (protein)
chain: B6 chain with R88Q, R123P
B13: E270D: KDM4D mutation (protein)
chain: B6 chain with R88Q, E270D
B14: P350S: KDM4D mutation (protein)
chain: B6 chain with R88Q, P350S
B15: R102C: KDM4D mutation (protein)
chain: B6 chain with R88Q, R102C
B16: V214L*: KDM4D mutation (protein, UniProt Q6B0I6 1-523, looked up, variant V214L)
Lysine-specific demethylase 4D: B6 chain with R88Q, V214L
B17: R243W: KDM4D mutation (protein)
chain: B6 chain with R88Q, R243W
B18: K337R: KDM4D mutation (protein)
chain: B6 chain with R88Q, K337R
B19: V345M: KDM4D mutation (protein)
chain: B6 chain with R88Q, V345M
B20: P260H: KDM4D mutation (protein)
chain: B6 chain with R88Q, P260H
B21: R332H: KDM4D mutation (protein)
chain: B6 chain with R88Q, R332H
B22: K210N: KDM4D mutation (protein)
chain: B6 chain with R88Q, K210N

Assay: Subcellular localization of KDM4 variants (immunofluorescence)
Assay type: cell-based
Conditions: KDM4A mutations; % nuclear

Molecule | Localization
B1 | ++ (++ indicates 60-79% nuclear)
B2 | ++ (++ indicates 60-79% nuclear)
B3 | − (− indicates 20-39% nuclear)
B4 | +++ (+++ indicates >80% nuclear)
B5 | ++ (++ indicates 60-79% nuclear)

Same assay, conditions: KDM4D mutations

Molecule | Localization
B6 | +++ (+++ indicates >80% nuclear)
B7 | − (− indicates 20-39% nuclear)
B8 | − (− indicates 20-39% nuclear)
B9 | +++ (+++ indicates >80% nuclear)
B10 | +++ (+++ indicates >80% nuclear)
B11 | − (− indicates 20-39% nuclear)
B12 | − (− indicates 20-39% nuclear)
B13 | − (− indicates 20-39% nuclear)
B14 | +++ (+++ indicates >80% nuclear)
B15 | +++ (+++ indicates >80% nuclear)
B16 | − (− indicates 20-39% nuclear)
B17 | − (− indicates 20-39% nuclear)
B18 | +++ (+++ indicates >80% nuclear)
B19 | +++ (+++ indicates >80% nuclear)
B20 | +++ (+++ indicates >80% nuclear)
B21 | +++ (+++ indicates >80% nuclear)
B22 | − (− indicates 20-39% nuclear)
